These results are taken from publication doi:10.1101/2021.11.18.469188.

Sequences of proteins named here, by UniProt entry; tags and fusion partners are left off. A change or cut given only in a name is not applied to a line headed by its entry. Residues count along the entry.
UniProt P54646: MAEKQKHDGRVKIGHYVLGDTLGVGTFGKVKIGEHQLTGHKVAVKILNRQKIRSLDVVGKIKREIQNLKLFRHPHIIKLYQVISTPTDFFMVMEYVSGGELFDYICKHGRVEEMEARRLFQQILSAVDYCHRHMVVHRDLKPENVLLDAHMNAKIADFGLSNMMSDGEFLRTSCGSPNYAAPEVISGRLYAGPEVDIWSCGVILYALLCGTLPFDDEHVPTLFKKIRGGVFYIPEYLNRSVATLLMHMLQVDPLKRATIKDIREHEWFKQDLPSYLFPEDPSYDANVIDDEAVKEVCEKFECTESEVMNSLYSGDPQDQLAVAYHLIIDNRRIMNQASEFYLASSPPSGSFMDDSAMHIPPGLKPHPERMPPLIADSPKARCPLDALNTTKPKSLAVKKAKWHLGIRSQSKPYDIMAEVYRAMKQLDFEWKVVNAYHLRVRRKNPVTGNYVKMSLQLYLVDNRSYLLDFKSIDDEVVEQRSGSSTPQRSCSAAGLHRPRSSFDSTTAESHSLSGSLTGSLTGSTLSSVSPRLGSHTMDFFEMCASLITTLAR
GST-AMPK-C (291-552 a.a.): residues 291-552 of P54646
UniProt P62330: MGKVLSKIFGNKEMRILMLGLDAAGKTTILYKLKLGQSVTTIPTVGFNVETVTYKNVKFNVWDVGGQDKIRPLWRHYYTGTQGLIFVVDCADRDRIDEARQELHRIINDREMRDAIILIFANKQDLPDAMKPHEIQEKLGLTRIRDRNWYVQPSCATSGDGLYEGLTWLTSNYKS

Results are given in words; binding and its absence hold for the method and conditions named. For part of these data: In cells and extracts the contact can be indirect. Some binding calls cover weakened binding; strength is not graded here.

The target in one experiment is FLAG-AMPKα2-WT (UniProt P54646). The experiment is described as follows: co-IP.
The target in experiment [1] is GST-AMPK-C (291-552 a.a.) (UniProt P54646). The experiment is described as follows: pull-down.

As for “Arf6-Q67L-myc (from UniProt P62330 1-175)”, in the experiment with FLAG-AMPKα2-WT, the binding result is “no binding”. “Arf6-T27N-myc (from UniProt P62330 1-175)”: the binding entry with FLAG-AMPKα2-WT is given as “binds”. On to His-Arf6 WT (from UniProt P62330 1-175), for which the binding result in experiment [1] is reported as “binds”.
